Values quoted from earlier work as cited in patent US20210123869A1, “METHOD FOR MEASURING PH OF TEST WATER” (MIURA CO., LTD., priority 2018, published 2021).
For at least one compound, name, drawing or mass did not settle the structure.

Details: value at 25° C.; two values for reagents acid-dissociated in two stages

O=S1(=O)OC(c2cc(Br)c(O)c(Br)c2)(c2cc(Br)c(O)c(Br)c2)c2ccccc21 [bromophenol blue]
acid dissociation constant (pKa): 4.2
